# Assay results from patent publication US7658727B1, “Implantable medical device with enhanced biocompatibility and biostability” (Medtronic, Inc, priority 1998, dated 2010).
# Tested on: human Mo/MØs
# Assay: Polymer hydroperoxide (ROOH) determination by iodometry after macrophage treatment
# Type: cell-based
# Conditions: AS PEU specimens, Mo/MØs plus DSP at 0.024 and 240 μg/ml
# Method: Macrophage Treatment. The PEU film specimens (AS and non-AS) in the microwell plates were covered with either freshly isolated human or rabbit monocyte-derived macrophage (Mo/MØs), or human lymphocytes (3×10^5 cells per well) and cultured in a standard media (RPMI-1640, 10% Fetal bovine serum, […], 10 Ul/ml Penicillin-G and 0.1 mg/ml Streptomycin). A 49-day macrophage treatment was conducted under standard conditions (i.e., presence of 5% CO2, and 95% humidity at 37° C.). Other experimental variations included adding dexamethasone sodium phosphate (DSP) at 0.024 μg/ml and 240 μg/ml concentrations to the culture media in the microwells. Two blank conditions were also studied. In one, culture media only was placed into the microwells. The other was prepared with no culture media and stored in the dark. All polymer specimens were incubated for the time of the first treatment. Samples in triplicate were removed after various time periods for hydroperoxide determination. […]
# Polymer specimens taken at various time periods during the macrophage treatment step were sonicated for 15 minutes in distilled water, rinsed three times, and dried at 25° C. for 4 hours. […] The resulting triiodide complex (I3^−) was measured spectrophotometrically at 360 nm λ with a Beckman DU-8 spectrophotometer (Beckman Instruments, Irvine, Calif.). […]
compound,measurement,value
"C[C@@H]1C[C@H]2[C@@H]3CCC4=CC(=O)C=C[C@]4(C)[C@@]3(F)[C@@H](O)C[C@]2(C)[C@@]1(O)C(=O)COP(=O)(O)O [DSP, dexamethasone sodium phosphate]",hydroperoxide concentration in polymer specimens,significantly lower hydroperoxide concentrations
